According to PMC12124425:
Results are given in words; binding and its absence hold for the method and conditions named. In cells and extracts the contact can be indirect. Here binding means that the protein was enriched with, or labelled near, the bait; the list need not be complete.

The chains behind the UniProt entries cited, without tags or fusion partners. Residues count along the entry.
UniProt Q9NY72, residues 23-215: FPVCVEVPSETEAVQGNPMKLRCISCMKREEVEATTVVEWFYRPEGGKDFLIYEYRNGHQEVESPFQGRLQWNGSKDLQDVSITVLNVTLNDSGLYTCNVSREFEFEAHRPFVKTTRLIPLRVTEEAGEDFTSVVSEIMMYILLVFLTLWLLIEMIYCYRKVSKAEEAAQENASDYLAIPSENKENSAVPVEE

Tests used:
[1] = molecular target: Myc tag-NaVβ3 (voltage-gated Na+ channel β3 subunit, encoded by SCN3B), expressed in TeloHAEC (human) (UniProt Q9NY72); assay: affinity purification with mass spectrometry; Myc-NaVβ3 captured from lysate of transfected TeloHAEC (20 mM Tris pH 7.4, 150 mM NaCl, 1% Triton) on Myc-Trap magnetic agarose beads overnight at 4°C after pre-clearing on control beads; eluate analysed by LC-MS/MS (DDA); pCTL vector as negative …
[2] = molecular target: Myc tag-NaVβ3 (voltage-gated Na+ channel β3 subunit, encoded by SCN3B), expressed in COS-7 (human) (UniProt Q9NY72); assay: affinity purification with mass spectrometry; Myc-NaVβ3 from transfected COS-7 immunocaptured on Myc-Trap magnetic beads and washed, then incubated with 1 mg HUVEC whole protein lysate for 1 h at 4°C; eluate analysed by LC-MS/MS (DDA); pCTL vector as negative control; only the target purified

binding [1]: binds | binding [2]: binds
B1: TMED9 (protein, UniProt Q9BVK6 38-235)
chain: LYFHIGETEKKCFIEEIPDETMVIGNYRTQLYDKQREEYQPATPGLGMFVEVKDPEDKVILARQYGSEGRFTFTSHTPGEHQICLHSNSTKFSLFAGGMLRVHLDIQVGEHANDYAEIAAKDKLSELQLRVRQLVEQVEQIQKEQNYQRWREERFRQTSESTNQRVLWWSILQTLILVAIGVWQMRHLKSFFEAKKLV
